According to paper PMC4259311:

Test system: FEMU2 3C2H2 zinc finger domain (GST-3C2H2) (Chlamydomonas reinhardtii)
Assay: EMSA
Conditions: EMSA kit E33075 (Invitrogen) DNA-binding buffer (composition, salt and pH not stated), 22 C, 20 min, 8% native PAGE, SYBR Green EMSA stain, recombinant protein, protein details: GST (pGEX-6P-1), label: none (SYBR Green stain)

CCGGGTCCGGGTCCGGGTCCGGGT (double strand) [Mu1 (CCGGGT tetramer)]
binding result: binds

TTAAGTTTAAGTTTAAGTTTAAGT (double strand) [Mu2 (TTAAGT tetramer)]
binding result: no binding

TTGAATTTGAATTTGAATTTGAAT (double strand) [Mu4 (TTGAAT tetramer)]
binding result: no binding

TTGGACTTGGACTTGGACTTGGAC (double strand) [Mu3 (TTGGAC tetramer)]
binding result: binds

TTGGGTTTGGGTTTGGGTTTGGGT (double strand) [WT (TTGGGT tetramer)]
binding result (10-40 ug protein): binds

For at least one entry, the source does not settle the construct or the ends of the probe. No signal at the amounts used counts as a negative.
